First the molecules themselves.
B1: PERM_HUMAN (protein, UniProt P05164 165-745, looked up)
Myeloperoxidase: VTCPEQDKYRTITGMCNNRRSPTLGASNRAFVRWLPAEYEDGFSLPYGWTPGVKRNGFPVALARAVSNEIVRFPTDQLTPDQERSLMFMQWGQLLDHDLDFTPEPAARASFVTGVNCETSCVQQPPCFPLKIPPNDPRIKNQADCIPFFRSCPACPGSNITIRNQINALTSFVDASMVYGSEEPLARNLRNMSNQLGLLAVNQRFQDNGRALLPFDNLHDDPCLLTNRSARIPCFLAGDTRSSEMPELTSMHTLLLREHNRLATELKSLNPRWDGERLYQEARKIVGAMVQIITYRDYLPLVLGPTAMRKYLPTYRSYNDSVDPRIANVFTNAFRYGHTLIQPFMFRLDNRYQPMEPNPRVPLSRVFFASWRVVLEGGIDPILRGLMATPAKLNRQNQIAVDEIRERLFEQVMRIGLDLPALNMQRSRDHGLPGYNAWRRFCGLPQPETVGQLGTVLRNLKLARKLMEQYGTPNNIDIWMGGVSEPLKRKGRVGPLLACIIGTQFRKLRDGDRFWWENEGVFSMQQRQALAQISLPRIICDNTGITTVSKNNIFMSNSYPRDFVNCSTLPALNLASWREAS
B2: MYSM1_HUMAN (protein, UniProt Q5VVJ2 1-828, looked up)
Deubiquitinase MYSM1: MAAEEADVDIEGDVVAAAGAQPGSGENTASVLQKDHYLDSSWRTENGLIPWTLDNTISEENRAVIEKMLLEEEYYLSKKSQPEKVWLDQKEDDKKYMKSLQKTAKIMVHSPTKPASYSVKWTIEEKELFEQGLAKFGRRWTKISKLIGSRTVLQVKSYARQYFKNKVKCGLDKETPNQKTGHNLQVKNEDKGTKAWTPSCLRGRADPNLNAVKIEKLSDDEEVDITDEVDELSSQTPQKNSSSDLLLDFPNSKMHETNQGEFITSDSQEALFSKSSRGCLQNEKQDETLSSSEITLWTEKQSNGDKKSIELNDQKFNELIKNCNKHDGRGIIVDARQLPSPEPCEIQKNLNDNEMLFHSCQMVEESHEEEELKPPEQEIEIDRNIIQEEEKQAIPEFFEGRQAKTPERYLKIRNYILDQWEICKPKYLNKTSVRPGLKNCGDVNCIGRIHTYLELIGAINFGCEQAVYNRPQTVDKVRIRDRKDAVEAYQLAQRLQSMRTRRRRVRDPWGNWCDAKDLEGQTFEHLSAEELAKRREEEKGRPVKSLKVPRPTKSSFDPFQLIPCNFFSEEKQEPFQVKVASEALLIMDLHAHVSMAEVIGLLGGRYSEVDKVVEVCAAEPCNSLSTGLQCEMDPVSQTQASETLAVRGFSVIGWYHSHPAFDPNPSLRDIDTQAKYQSYFSRGGAKFIGMIVSPYNRNNPLPYSQITCLVISEEISPDGSYRLPYKFEVQQMLEEPQWGLVFEKTRWIIEKYRLSHSSVPMDKIFRRDSDLTCLQKLLECMRKTLSKVTNCFMAEEFLTEIENLFLSNYKSNQENGVTEENCTKELLM
B3: INVO_HUMAN (protein, UniProt P07476 1-585, looked up)
Involucrin: MSQQHTLPVTLSPALSQELLKTVPPPVNTHQEQMKQPTPLPPPCQKVPVELPVEVPSKQEEKHMTAVKGLPEQECEQQQKEPQEQELQQQHWEQHEEYQKAENPEQQLKQEKTQRDQQLNKQLEEEKKLLDQQLDQELVKRDEQLGMKKEQLLELPEQQEGHLKHLEQQEGQLKHPEQQEGQLELPEQQEGQLELPEQQEGQLELPEQQEGQLELPEQQEGQLELPEQQEGQLELPQQQEGQLELSEQQEGQLELSEQQEGQLKHLEHQEGQLEVPEEQMGQLKYLEQQEGQLKHLDQQEKQPELPEQQMGQLKHLEQQEGQPKHLEQQEGQLEQLEEQEGQLKHLEQQEGQLEHLEHQEGQLGLPEQQVLQLKQLEKQQGQPKHLEEEEGQLKHLVQQEGQLKHLVQQEGQLEQQERQVEHLEQQVGQLKHLEEQEGQLKHLEQQQGQLEVPEQQVGQPKNLEQEEKQLELPEQQEGQVKHLEKQEAQLELPEQQVGQPKHLEQQEKHLEHPEQQDGQLKHLEQQEGQLKDLEQQKGQLEQPVFAPAPGQVQDIQPALPTKGEVLLPVEHQQQKQEVQWPPKHK
B4: MOES_HUMAN (protein, UniProt P26038 2-577, looked up)
Moesin: PKTISVRVTTMDAELEFAIQPNTTGKQLFDQVVKTIGLREVWFFGLQYQDTKGFSTWLKLNKKVTAQDVRKESPLLFKFRAKFYPEDVSEELIQDITQRLFFLQVKEGILNDDIYCPPETAVLLASYAVQSKYGDFNKEVHKSGYLAGDKLLPQRVLEQHKLNKDQWEERIQVWHEEHRGMLREDAVLEYLKIAQDLEMYGVNYFSIKNKKGSELWLGVDALGLNIYEQNDRLTPKIGFPWSEIRNISFNDKKFVIKPIDKKAPDFVFYAPRLRINKRILALCMGNHELYMRRRKPDTIEVQQMKAQAREEKHQKQMERAMLENEKKKREMAEKEKEKIEREKEELMERLKQIEEQTKKAQQELEEQTRRALELEQERKRAQSEAEKLAKERQEAEEAKEALLQASRDQKKTQEQLALEMAELTARISQLEMARQKKESEAVEWQQKAQMVQEDLEKTRAELKTAMSTPHVAEPAENEQDEQDENGAEASADLRADAMAKDRSEEERTTEAEKNERVQKHLKALTSELANARDESKKTANDMIHAENMRLGRDKYKTLRQIRQGNTKQRIDEFESM
B5: CAPG_HUMAN (protein, UniProt P40121 1-348, looked up)
Macrophage-capping protein: MYTAIPQSGSPFPGSVQDPGLHVWRVEKLKPVPVAQENQGVFFSGDSYLVLHNGPEEVSHLHLWIGQQSSRDEQGACAVLAVHLNTLLGERPVQHREVQGNESDLFMSYFPRGLKYQEGGVESAFHKTSTGAPAAIKKLYQVKGKKNIRATERALNWDSFNTGDCFILDLGQNIFAWCGGKSNILERNKARDLALAIRDSERQGKAQVEIVTDGEEPAEMIQVLGPKPALKEGNPEEDLTADKANAQAAALYKVSDATGQMNLTKVADSSPFALELLISDDCFVLDNGLCGKIYIWKGRKANEKERQAALQVAEGFISRMQYAPNTQVEILPQGHESPIFKQFFKDWK
B6: TRFL_HUMAN (protein, UniProt P02788 20-710, looked up)
Lactotransferrin: GRRRSVQWCAVSQPEATKCFQWQRNMRKVRGPPVSCIKRDSPIQCIQAIAENRADAVTLDGGFIYEAGLAPYKLRPVAAEVYGTERQPRTHYYAVAVVKKGGSFQLNELQGLKSCHTGLRRTAGWNVPIGTLRPFLNWTGPPEPIEAAVARFFSASCVPGADKGQFPNLCRLCAGTGENKCAFSSQEPYFSYSGAFKCLRDGAGDVAFIRESTVFEDLSDEAERDEYELLCPDNTRKPVDKFKDCHLARVPSHAVVARSVNGKEDAIWNLLRQAQEKFGKDKSPKFQLFGSPSGQKDLLFKDSAIGFSRVPPRIDSGLYLGSGYFTAIQNLRKSEEEVAARRARVVWCAVGEQELRKCNQWSGLSEGSVTCSSASTTEDCIALVLKGEADAMSLDGGYVYTAGKCGLVPVLAENYKSQQSSDPDPNCVDRPVEGYLAVAVVRRSDTSLTWNSVKGKKSCHTAVDRTAGWNIPMGLLFNQTGSCKFDEYFSQSCAPGSDPRSNLCALCIGDEQGENKCVPNSNERYYGYTGAFRCLAENAGDVAFVKDVTVLQNTDGNNNEAWAKDLKLADFALLCLDGKRKPVTEARSCHLAMAPNHAVVSRMDKVERLKQVLLHQQAKFGRNGSDCPDKFCLFQSETKNLLFNDNTECLARLHGKTTYEKYLGPQYVAGITNLKKCSTSPLLEACEFLRK
B7: ILEU_HUMAN (protein, UniProt P30740 1-379, looked up)
Leukocyte elastase inhibitor: MEQLSSANTRFALDLFLALSENNPAGNIFISPFSISSAMAMVFLGTRGNTAAQLSKTFHFNTVEEVHSRFQSLNADINKRGASYILKLANRLYGEKTYNFLPEFLVSTQKTYGADLASVDFQHASEDARKTINQWVKGQTEGKIPELLASGMVDNMTKLVLVNAIYFKGNWKDKFMKEATTNAPFRLNKKDRKTVKMMYQKKKFAYGYIEDLKCRVLELPYQGEELSMVILLPDDIEDESTGLKKIEEQLTLEKLHEWTKPENLDFIEVNVSLPRFKLEESYTLNSDLARLGVQDLFNSSKADLSGMSGARDIFISKIVHKSFVEVNEEGTEAAAATAGIATFCMLMPEENFTADHPFLFFIRHNSSGSILFLGRFSSP
B8: MDHM_HUMAN (protein, UniProt P40926 25-338, looked up)
Malate dehydrogenase, …: AKVAVLGASGGIGQPLSLLLKNSPLVSRLTLYDIAHTPGVAADLSHIETKAAVKGYLGPEQLPDCLKGCDVVVIPAGVPRKPGMTRDDLFNTNATIVATLTAACAQHCPEAMICVIANPVNSTIPITAEVFKKHGVYNPNKIFGVTTLDIVRANTFVAELKGLDPARVNVPVIGGHAGKTIIPLISQCTPKVDFPQDQLTALTGRIQEAGTEVVKAKAGAGSATLSMAYAGARFVFSLVDAMNGKEGVVECSFVKSQETECTYFSTPLLLGKKGIEKNLGIGKVSSFEEKMISDAIPELKASIKKGEDFVKTLK
B9: MIF_HUMAN (protein, UniProt P14174 2-115, looked up)
Macrophage migration …: PMFIVNTNVPRASVPDGFLSELTQQLAQATGKPPQYIAVHVVPDQLMAFGGSSEPCALCSLHSIGKIGGAQNRSYSKLLCGLLAERLRISPDRVYINYYDMNAANVGWNNSTFA
B10: HMGB2_HUMAN (protein, UniProt P26583 1-209, looked up)
High mobility group protein B2: MGKGDPNKPRGKMSSYAFFVQTCREEHKKKHPDSSVNFAEFSKKCSERWKTMSAKEKSKFEDMAKSDKARYDREMKNYVPPKGDKKGKKKDPNAPKRPPSAFFLFCSEHRPKIKSEHPGLSIGDTAKKLGEMWSEQSAKDKQPYEQKAAKLKEKYEKDIAAYRAKGKSEAGKKGPGRPTGSKKKNEPEDEEEEEEEEDEDEEEEDEDEE

The test system of the first data set is peptides in gingival brush samples. The data set can be described thus: Protein and peptide profiling of gingival brush samples (LC-MS/MS), TABLE 23. Type of data set: in vivo, human. The settings on record: peptide abundance, gingival brush samples, control regimen, baseline.
Take B1: the “Mean Cntl Bsl” value was determined as 25181.7.
On the same count and under the same terms, under B2 stands 46262.7; under B3, 58457.2.
Still for that read-out and setting: under B4 stands 2186.3; under B5, 25960.8.
The same measure, in the same setting: under B6 stands 13672.9; under B7, 8769.7.
Regarding B8, the “Mean Cntl Bsl” value is recorded as 2848.8.
B9: the “Mean Cntl Bsl” value is 8319.5.
B10: the “Mean Cntl Bsl” value came out at 13849.4.

The data set is the same for the next values; noted with them: peptide abundance, gingival brush samples, control regimen, week 3.
On to B1, for which the “Mean Cntl Wk3” value is given as 20462.4.
The same measure, in the same setting: for B2 the value was 20231.4.
As for B4, the “Mean Cntl Wk3” value is 2082.8.
With B5, the “Mean Cntl Wk3” value came out at 42118.2.
In the case of B6, the “Mean Cntl Wk3” value was 6956.6.
On the same count and under the same terms, under B7 stands 8901.6; under B8, 3731.2.
As for B9, the “Mean Cntl Wk3” value is reported as 11969.6.
The same measure, in the same setting: under B10 stands 11639.0.

Staying with this data set, now noted: peptide abundance, gingival brush samples, treatment regimen, baseline.
Consider B1, for which the “Mean TrtBsl” value is recorded as 28386.8.
On the same count and under the same terms, for B2 the value was 68195.5; for B3, 52897.6.
Same read-out and setting: for B4 the value was 3594.1; for B5, 29622.1.
Still for that read-out and setting: under B6 stands 15434.5; under B7, 9351.4.
As for B8, the “Mean TrtBsl” value is on record as 1778.0.
Turning to B9, the “Mean TrtBsl” value is on record as 5332.4.
Same read-out and setting: for B10 the value was 19129.2.

The same data set, now with this note: peptide abundance, gingival brush samples, treatment regimen, week 3.
For the molecule B1, the “Mean TrtWk3” value is 16648.3.
The same measure, in the same setting: for B2 the value was 17889.7.
Still for that read-out and setting: under B3 stands 80754.6; under B4, 2149.5.
The same measure, in the same setting: under B5 stands 46989.5; under B6, 7532.6.
As for B7, the “Mean TrtWk3” value turned out to be 19761.2.
B8: the “Mean TrtWk3” value is recorded as 4639.0.
Same read-out and setting: under B9 stands 10109.7; under B10, 10085.9.

(Values after patent US20180320217A1, “METHODS FOR SAMPLING AND MEASURING ORAL LAVAGE PROTEINS” (The Procter & Gamble Company, priority 2017, published 2018).)
